Reference: publication PMC12670160, “A drug-repurposing screen of FDA- and EMA-approved drugs identifies two NF-κB inhibitors active against eumycetoma” (Journal of Antimicrobial Chemotherapy, 2025)
Counter-ions that a name gives are not always drawn. The campaign covered roughly 5,300 compounds. About 130 (2.5%) showed an effect of 50% or more. Some of the results follow.

Tested on: M. mycetomatis strain mm55
Conditions: primary screen, metabolic activity vs growth control; 96 h, 2 µM; inhibitor

Point of comparison: `COc1cc(C(=S)N2CCOCC2)ccc1O` [ONC0004297, vanitiolide], “% viability” value 83.35%. Against it:
- CCCCN1C[C@H](O)[C@@H](O)[C@H](O)[C@H]1CO [ONC0005490, miglustat nbutyldeoxynojirimycinhcl] — higher, 110.7%
- OC(CNc1ccccc1)Cn1c2ccc(Br)cc2c2cc(Br)ccc21 (stereo not drawn) [ONC0001560, p7c3] — higher, 95.43%
- N[C@@H](CC(=O)O)C(=O)O [ONC0005584, lasparticacid] — lower, 67.27%
- CC(C)NC(=O)COc1cccc(-c2nc(Nc3ccc4[nH]ncc4c3)c3ccccc3n2)c1 [ONC0001882, slx2119] — lower, 46.69%
- Cc1ncc([N+](=O)[O-])n1C [ONC0005324, dimetridazole] — higher, 129%
- CNc1ncnc2c1ncn2[C@@H]1O[C@H](CO)[C@@H](O)[C@H]1O [ONC0004528, n6methyladenosine m6a] — lower, 76.1%
- O=C(c1ccc(F)cc1)C1CCN(CCCCc2ccccc2)CC1 [ONC0002480, 44fluorobenzoyl14phenylbutylpiperidine] — lower, 58.97%
- CC(C)(C)C(=O)OCOC(=O)[C@@H]1N2C(=O)[C@@H](/N=C/N3CCCCCC3)[C@H]2SC1(C)C [ONC0000998, pivmecillinam hydrochloride] — higher, 95.26%
- CCCCCN(C)CCC(O)(P(=O)(O)O)P(=O)(O)O [ONC0004236, ibandronate sodium] — lower, 67.1%
- O=C1NCCN1c1ncc([N+](=O)[O-])s1 [ONC0002372, niridazole] — lower, 81.15%
- C1N2CN3CN1CN(C2)C3 [ONC0002802, methenamine mandelamine] — higher, 129.4%
- O=c1ccc2cc3ccoc3cc2o1 [ONC0003846, psoralen ficusin] — lower, 67.57%
- N[C@H](C(=O)O)c1ccc(C(=O)O)c(C(=O)O)c1 [ONC0000847, 34dcpgs] — lower, 58.51%
- N[C@@H](CS)C(=O)O [ONC0002161, lcysteine] — higher, 94.42%
- NC(N)=Nc1nc(CSCCC(N)=NS(N)(=O)=O)cs1 [ONC0003248, famotidine] — higher, 89.34%
- Nc1nnc(Sc2ncc([N+](=O)[O-])s2)s1 [ONC0004235, su3327] — higher, 89.26%
- C=C(C)[C@@H]1CC[C@]2(C(=O)O)CC[C@]3(C)[C@H](CC[C@@H]4[C@@]5(C)CC[C@H](O)C(C)(C)[C@@H]5CC[C@]43C)[C@@H]12 [ONC0005112, betulinic acid] — lower, 73.76%
- COc1cc(-n2cnc3cc(-c4ccc(Cl)cc4)sc3c2=O)ccc1OCCN1CCCC1 [ONC0002718, gw803430] — lower, 74.36%
- CCn1cc(C(=O)O)c(=O)c2cc(F)c(N3CCNCC3)nc21 [ONC0002842, enoxacin] — higher, 91.4%
- CCCCCCCCC(=O)N[C@H](CN1CCCC1)[C@H](O)c1ccc2c(c1)OCCO2 [ONC0001045, genz123346 free base] — lower, 78.97%
- CC(=O)OCC(=O)NCCCOc1cccc(CN2CCCCC2)c1 [ONC0004294, roxatidine acetate hydrochloride] — lower, 65.07%
- C[C@H](NCc1ccc(OCc2cccc(F)c2)cc1)C(N)=O [ONC0004903, safinamide mesylate fce28073] — higher, 91.48%
- CN1C(=O)COc2c(C(=O)NC3CN4CCC3CC4)cc(Cl)cc21 (stereo not drawn) [ONC0004557, azasetron hcl] — lower, 67.31%
- O=c1ccc2c(OCCCCOc3ccccc3)c3ccoc3cc2o1 [ONC0000770, pap1] — lower, 62.21%
- O=CN1CCC(C(=O)NCCN2CCC(=C3c4ccccc4C=Cc4ccccc43)CC2)CC1 [ONC0001856, at1015] — higher, 84.57%
- O=C1CCC[C@@H]2[C@@H]3CCCN4CCC[C@H](CN12)[C@@H]34 [ONC0004745, matrine matrine] — higher, 117%
- O=C1OC(c2ccc(O)cc2)(c2ccc(O)cc2)c2ccccc21 [ONC0000601, phenolphthalein] — lower, 78.25%
- C[C@H](N)Cn1ccc2cc(F)c(Cl)cc21 [ONC0001710, ro600175 fumarate] — lower, 62.47%
- CC1(C)S[C@@H]2[C@H](N)C(=O)N2[C@H]1C(=O)O [ONC0005344, 6aminopenicillanicacid] — higher, 129.7%
- CC(C)=CCOc1ccc(/C=C/C(=O)c2ccc(OCC=C(C)C)cc2OCC(=O)O)cc1 [ONC0005300, sofalcone] — higher, 120.9%
- C[C@@H]1CN(CCCn2c3ccccc3c3ccccc32)C[C@H](C)N1 [ONC0001422, rimcazole] — lower, 54.11%
- Oc1ccc(C2CNCCc3c2cc(O)c(O)c3Cl)cc1 (stereo not drawn) [ONC0003932, fenoldopam mesylate] — lower, 82.27%
- CC(C(=O)O)c1cccc(Oc2ccccc2)c1 (stereo not drawn) [ONC0000663, fenoprofen] — higher, 128.7%
- N#C/C(=C\c1ccc(O)c(O)c1)C(=O)Nc1ccccc1 [ONC0000100, tyrphostinag494] — higher, 92.12%
- CC(C)(C)CC1NC(C(=O)NC2CCC(O)CC2)C(c2cccc(Cl)c2F)C12C(=O)Nc1cc(Cl)ccc12 (stereo not drawn) [ONC0004366, mi773 sar405838] — higher, 131.2%
- CN1Cc2c(C(=O)OC(C)(C)C)ncn2-c2ccsc2C1=O [ONC0000228, ro194605] — lower, 69.22%
- CCCc1ncc(C[n+]2ccccc2C)c(N)n1 [ONC0003221, amprolium] — higher, 103.9%
- O=C1NC(=O)/C(=C/c2ccc3nccc(-c4ccncc4)c3c2)S1 [ONC0004984, gsk1059615] — higher, 106.4%
- CC(O)c1cc(C(=O)N[C@@H](C)Cn2ccc(-c3ccc(C#N)c(Cl)c3)n2)[nH]n1 (stereo partly drawn) [ONC0005059, odm201] — higher, 86.36%
- O=C1NC(=O)C(c2ccccc2[N+](=O)[O-])=C1Nc1ccc(O)c(Cl)c1 [ONC0001875, sb415286] — lower, 59.4%
- CO/N=C(\C(=O)N[C@@H]1C(=O)N2C(C(=O)O)=CCS[C@H]12)c1csc(N)n1 [ONC0001333, ceftizoxime sodium] — higher, 83.5%
